PMC10564737, “Structure-based design of a phosphotyrosine-masked covalent ligand targeting the E3 ligase SOCS2” (Nature Communications, 2023)
Where “and” joins values, the source holds several entries; their conditions need not be identical. Equal entries are not always repeated. This continues a long series; more values of the same kind are listed elsewhere.

By UniProt entry, the sequences of proteins in these tests, tags left out. Residues count along the entry.
UniProt O14508, 32-198: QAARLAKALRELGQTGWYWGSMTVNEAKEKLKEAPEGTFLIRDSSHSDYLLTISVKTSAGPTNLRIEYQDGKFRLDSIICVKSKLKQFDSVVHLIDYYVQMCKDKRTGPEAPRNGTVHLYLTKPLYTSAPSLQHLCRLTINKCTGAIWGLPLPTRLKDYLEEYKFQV

Target: T1, SBC2 (Homo sapiens, UniProt O14508)
T1 construct: SOCS2 (amino acids 32–198); His6 (N, cleaved yes); made in house; host or cells: E. coli BL21(DE3)
Test: Covalent fluorescence polarization (FP) probe displacement assay
Type: binding
Source text: With the specific covalent modification of Cys111 established, we decided to fully characterize MN551 as a covalent SOCS2 inhibitor. […] (Fig. 2g, h, Supplementary Fig. 9). Due to the covalent nature of the competing inhibitor, a time-dependent reduction in the fraction of protein-bound probe is observed. […] This value illustrates reasonable specificity for a covalent inhibitor, with nonetheless scope for future optimization. In addition to characterizing the kinetic covalency parameters, we have also assessed the stability of the MN551 by monitoring its reactivity (half-life >70 min) with reduced glutathione (GSH) (Supplementary Fig. 10)[35].
To monitor the SBC2-ligand binding kinetics we designed a fluorescein-labeled small-molecule probe - compound 26. The fluorescence polarization (anisotropy) of a threefold serial dilution of 50 µM SBC2 in 10 nM of the probe in 100 mM HEPES pH 7.5, 50 mM NaCl, 0.5 mM TCEP, 2% DMSO was measured to determine the KL (Supplementary Fig. 9A) (BMG Labtech PHERAstar – firmware v1.33). Protein titration and the curves were fitted using GraphPad Prism 9, using one-site fitting models to determine the probe binding constant, KL. Samples were run in triplicate in 384 well plates, using a total volume per well of 16 μL. The bound fraction of the probe is measure using the equation:1 Fb=Af−A/Af−Ab Where,
A time-dependent reduction in probe anisotropy were measured for a 2-fold serial dilution of […] compound MN551 in 10 nM probe +300 μM SBC2. To determine the initial reversible binding affinity, the initial bound fraction of the probe at time = 0, Fbo (the y-intercept in Fb v/s Time plot, Supplementary Fig. 9B) was plotted against MN551 concentration, and the obtained IC50 is then converted to Ki (Supplementary Fig. 9C)[17]. The slope from Fb versus time graph when divided by Fbo gives rate of covalency, kobs. A plot of kobs v/s MN551 concentration using Michaelis–Menten model of GraphPad Prism 9, provides the parameters kinact (maximum potential rate of inactivation) and KI (concentration of MN551 at which kobs = kinact/2) (Supplementary Fig. 9D, E).
The observed first-order rate constant, kobs is related to KI and kinact by the equation:2 kobs=kinactI/KI+I
At [I]«[KI] the above equation is converted to3 […]
The slope from the plot of kobs against concentration of MN551 gives us the covalent efficiency parameter kinact/KI (Supp Fig. 9F)[30],[33].

[1] = MN551 1562.5 nM; Cycle 13 (60 min); n=1
[2] = MN551 1562.5 nM; Cycle 14 (65 min); n=1
[3] = MN551 1562.5 nM; Cycle 15 (70 min); n=1
[4] = MN551 1562.5 nM; Cycle 16 (75 min); n=1
[5] = MN551 3125 nM, Cycle 8 (35 min)
[6] = MN551 3125 nM, Cycle 9 (40 min)
[7] = MN551 3125 nM, Cycle 10 (45 min)
[8] = MN551 3125 nM; Cycle 7 (30 min)
[9] = MN551 3125 nM; Cycle 8 (35 min)
[10] = MN551 3125 nM; Cycle 9 (40 min)
[11] = MN551 3125 nM; Cycle 10 (45 min)
[12] = MN551 3125 nM; Cycle 11 (50 min)
[13] = MN551 3125 nM; Cycle 12 (55 min); n=1
[14] = MN551 3125 nM; Cycle 13 (60 min); n=1
[15] = MN551 3125 nM; Cycle 14 (65 min); n=1
[16] = MN551 3125 nM; Cycle 15 (70 min); n=1
[17] = MN551 3125 nM; Cycle 16 (75 min); n=1
[18] = MN551 3125 nM; Cycle 17 (80 min); n=1
[19] = MN551 6250 nM, Cycle 8 (35 min)
[20] = MN551 6250 nM, Cycle 9 (40 min)
[21] = MN551 6250 nM, Cycle 10 (45 min)
[22] = MN551 6250 nM; Cycle 7 (30 min)
[23] = MN551 6250 nM; Cycle 8 (35 min)
[24] = MN551 6250 nM; Cycle 9 (40 min)
[25] = MN551 6250 nM; Cycle 10 (45 min)

O=C(CCl)Nc1cccc(CNC(=O)[C@H](Cc2ccc(OP(=O)(O)O)cc2)NC(=O)Cc2ccc(F)cc2)c1 [MN551]
Anisotropy [1]: 229.8 and 234.4 and 235.2 | Anisotropy based on Raw Data (485) [1]: 235.6 and 238.5 and 233.4 | Anisotropy [2]: 227.1 and 232.1 and 231 | Anisotropy based on Raw Data (485) [2]: 234.5 and 232.3 and 232.6 | Anisotropy [3]: 224.9 and 229.8 and 228.8 | Anisotropy based on Raw Data (485) [3]: 229 and 231.4 and 227.1 | Anisotropy [4]: 221.4 and 228.3 and 226.7 | Anisotropy based on Raw Data (485) [4]: 229.6 and 230.2 and 223.6 | Anisotropy data 485,520,520 (MN551 1562.5 nM; Cycle 19 (90 min); n=1): 219.9 and 220.1 and 217.3 | Anisotropy data 485,520,520 (MN551 1562.5 nM; Cycle 20 (95 min); n=1): 215.4 and 215.6 | Fb (MN551 3125 nM, Cycle 7 (30 min)): 0.5021 and 0.5574 and 0.5274 | Anisotropy based on Raw Data (485) [5]: 230.4 and 225 | Fb [5]: 0.4484 and 0.5236 and 0.4774 | Anisotropy based on Raw Data (485) [6]: 226.8 and 228.4 and 222.7 | Fb [6]: 0.4219 and 0.5154 and 0.4585 | Anisotropy based on Raw Data (485) [7]: 225.8 and 224.5 and 221.4 | Fb [7]: 0.4179 and 0.4825 and 0.4723 | Anisotropy (MN551 3125 nM, Cycle 13 (60 min), n=1): 216 and 213.7 and 213.1 | Anisotropy (MN551 3125 nM, Cycle 14 (65 min), n=1): 213 and 211.5 and 209.7 | Anisotropy (MN551 3125 nM, Cycle 15 (70 min), n=1): 213.3 and 209.1 and 208.1 | Anisotropy (MN551 3125 nM, Cycle 16 (75 min), n=1): 208.5 and 206.2 and 205.8 | Anisotropy (MN551 3125 nM, Cycle 18 (85 min), n=1): 203.4 and 202.2 and 200.4 | Fb, fraction bound (MN551 3125 nM; Cycle 4 (15 min)): 0.6147 and 0.6141 and 0.596 | Fb, fraction bound (MN551 3125 nM; Cycle 5 (20 min)): 0.5816 and 0.6069 and 0.5798 | Fb, fraction bound (MN551 3125 nM; Cycle 6 (25 min)): 0.5809 and 0.577 and 0.5744 | Anisotropy data 485,520,520 [8]: 230 and 231.4 and 233.7 | Fb [8]: 0.552 and 0.5546 and 0.5812 | Fb, fraction bound [8]: 0.5447 and 0.55 and 0.5399 | Anisotropy [9]: 230.6 and 228.5 and 227.3 | Anisotropy data 485,520,520 [9]: 227.5 and 229 and 230.8 | Fb [9]: 0.518 and 0.5256 and 0.5538 and 0.5298 and 0.5153 and 0.5089 | Anisotropy [10]: 227.6 and 227.3 and 223.5 | Anisotropy data 485,520,520 [10]: 224.7 and 225.6 and 228.2 | Fb [10]: 0.5025 and 0.5082 and 0.5371 and 0.4972 and 0.5123 and 0.484 | Anisotropy [11]: 224.7 and 223.9 and 219.5 | Anisotropy data 485,520,520 [11]: 221.1 and 221.8 and 224.3 | Fb [11]: 0.4762 and 0.4792 and 0.5005 and 0.4717 and 0.4943 and 0.4549 | Anisotropy [12]: 222.7 and 217.5 and 217.2 | Anisotropy based on Raw Data (485) [12]: 220.2 and 222.1 and 218.3 | Anisotropy (MN551 3125 nM; Cycle 11 (50 min); n=1): 217.2 and 219.7 and 223.2 | Anisotropy [13]: 215.6 and 217.4 and 218.7 | Anisotropy based on Raw Data (485) [13]: 218 and 219.1 and 214.5 | Anisotropy [14]: 213.4 and 214.8 and 217.7 | Anisotropy based on Raw Data (485) [14]: 215.3 and 215.2 and 214.7 | Anisotropy [15]: 209.5 and 212.1 and 214 | Anisotropy based on Raw Data (485) [15]: 212.6 and 214.6 and 210.4 | Anisotropy [16]: 209.2 and 209.9 and 211.1 | Anisotropy based on Raw Data (485) [16]: 211.1 and 211.4 and 210.8 | Anisotropy [17]: 206.3 and 204.2 and 209 | Anisotropy based on Raw Data (485) [17]: 209.6 and 208 and 203.7 | Anisotropy [18]: 205.7 and 203.5 and 202.2 | Anisotropy based on Raw Data (485) [18]: 204.8 and 205.7 and 202.1 | Anisotropy data 485,520,520 (MN551 3125 nM; Cycle 19 (90 min); n=1): 201.9 and 201.4 and 198.7 | Anisotropy data 485,520,520 (MN551 3125 nM; Cycle 20 (95 min); n=1): 199.4 and 197.1 and 199.1 | Fb (MN551 6250 nM, Cycle 7 (30 min)): 0.2848 and 0.3538 and 0.3243 | Anisotropy based on Raw Data (485) [19]: 206.7 and 206 and 207.2 | Fb [19]: 0.2464 and 0.3067 and 0.3168 | Anisotropy based on Raw Data (485) [20]: 206.2 and 202.8 and 203.6 | Fb [20]: 0.2508 and 0.2839 and 0.2823 | Anisotropy based on Raw Data (485) [21]: 202.2 and 201.5 and 200.9 | Fb [21]: 0.2241 and 0.2807 and 0.2865 | Anisotropy (MN551 6250 nM, Cycle 13 (60 min), n=1): 193.2 and 192.9 and 193.1 | Anisotropy (MN551 6250 nM, Cycle 14 (65 min), n=1): 191.5 and 189.9 and 189.1 | Anisotropy (MN551 6250 nM, Cycle 15 (70 min), n=1): 190.7 and 187.5 and 188.4 | Anisotropy (MN551 6250 nM, Cycle 16 (75 min), n=1): 186.9 and 186.5 and 187.3 | Anisotropy (MN551 6250 nM, Cycle 18 (85 min), n=1): 184.5 and 183.4 and 184.3 | Fb, fraction bound (MN551 6250 nM; Cycle 4 (15 min)): 0.3977 and 0.4042 and 0.4004 | Fb, fraction bound (MN551 6250 nM; Cycle 5 (20 min)): 0.3488 and 0.3735 and 0.3661 | Fb, fraction bound (MN551 6250 nM; Cycle 6 (25 min)): 0.3491 and 0.3375 and 0.3388 | Anisotropy data 485,520,520 [22]: 215.4 and 210.6 and 212.9 | Fb [22]: 0.4073 and 0.3636 and 0.3814 | Fb, fraction bound [22]: 0.3194 and 0.3227 and 0.3211 | Anisotropy [23]: 208 and 204.6 and 206.6 | Anisotropy data 485,520,520 [23]: 210.3 and 208.4 and 210.7 | Fb [23]: 0.3508 and 0.3373 and 0.3642 and 0.3125 and 0.293 and 0.3146 | Anisotropy [24]: 202.6 and 200.2 and 201.9 | Anisotropy data 485,520,520 [24]: 206.4 and 206 and 206.9 | Fb [24]: 0.32 and 0.3294 and 0.3371 and 0.2613 and 0.2561 and 0.281 | Anisotropy [25]: 199.5 and 198.5 and 201.6 | Anisotropy data 485,520,520 [25]: 206.3 and 203.4 and 204.6
